The assay deals with Adenosine A2A receptor (human) (human) (UniProt P29274). Nature of the assay: flow cytometry at 100 nM IgG, HEK293-A2a cells against parent cells.

For one molecule, binding results are on record in patent US20250145724A1.

No constants are given. Whether binding was seen depends on the method and setting. Some entries that bind do so weakly or less than the wild type.

B1: A2A - 2 (antibody, V domains shown)
VH: EVQLLESGAEVKKPGASVKVSCKASGYTFTGYYMHWVRQAPGQGLEWMGWINPNSGGTNYAQKFQGRVTMTRDTSISTAYMELSSLRSEDTAVYYCARGGPFDYWGQGTMVTVSS
VL: ELTLTQSPAFMSATPGDKVNISCKASQDIDDDMNWYQQKPGEAAIFIIQEATTLVPGIPPRFSGSGYGTDFTLTINNIESEDAAYYFCLQHDNFPMYTFGQGTKLEIK
B1: the binding entry is listed as “binds”.
